Results taken from paper PMC3954793, “SHP-2 Binds to Caveolin-1 and Regulates Src Activity via Competitive Inhibition of CSK in Response to H2O2 in Astrocytes” (PLoS ONE, 2014).
Results are given in words; binding and its absence hold for the method and conditions named. For part of these data: In cells and extracts the contact can be indirect. Some results given as binding are weak or reduced against the parent protein; the word gives no strength.

The chains behind the UniProt entries cited, without tags or fusion partners. Where a name states a change or a piece, a line headed by the entry shows the natural chain unless it says otherwise.
UniProt Q03135: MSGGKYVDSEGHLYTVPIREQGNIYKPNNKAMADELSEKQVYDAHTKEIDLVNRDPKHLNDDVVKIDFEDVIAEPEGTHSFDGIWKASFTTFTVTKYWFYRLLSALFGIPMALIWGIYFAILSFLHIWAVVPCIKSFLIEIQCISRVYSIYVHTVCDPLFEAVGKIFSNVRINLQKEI
UniProt P41240: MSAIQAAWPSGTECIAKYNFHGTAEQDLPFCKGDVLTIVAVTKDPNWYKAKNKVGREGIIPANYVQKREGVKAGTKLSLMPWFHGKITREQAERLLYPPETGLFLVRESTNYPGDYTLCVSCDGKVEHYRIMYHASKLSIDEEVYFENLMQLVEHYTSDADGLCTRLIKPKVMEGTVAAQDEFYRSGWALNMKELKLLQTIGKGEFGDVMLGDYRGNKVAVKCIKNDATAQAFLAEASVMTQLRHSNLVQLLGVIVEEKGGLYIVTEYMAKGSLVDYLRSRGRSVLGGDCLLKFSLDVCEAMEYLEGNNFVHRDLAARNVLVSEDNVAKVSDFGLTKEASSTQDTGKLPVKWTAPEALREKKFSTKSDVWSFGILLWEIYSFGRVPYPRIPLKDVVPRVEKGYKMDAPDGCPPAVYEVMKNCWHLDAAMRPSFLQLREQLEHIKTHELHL

Tests used:
[1] = molecular target: phosphorylation-deficient caveolin-1 mutant (Y14A) (human) (UniProt Q03135); assay: co-IP; HEK 293T cells transfected with caveolin-1 WT or Y14A, 5 mM H2O2 for 10 min; 700 µg lysate in RIPA buffer; immunoprecipitation with anti-CSK, anti-SHP-2 or anti-caveolin-1, immunoblot
[2] = molecular target: T1, caveolin-1 phosphopeptide Cav-1 pY 14 (human); assay: SPR; reverse orientation: Cav-1 pY 14 immobilised on the chip (via covalently bound streptavidin), rGST-SHP-2 or rGST-CSK injected; both purified
T1 sequence (peptide, phosphotyrosine at position 4 of the peptide (Tyr 14 of caveolin-1)): GHLYTVPIREQGN

[3] = molecular target: caveolin-1 peptide, residues 9–21 (spot 2 of the caveolin-1 (1–85) PepSPOT array) (human) (UniProt Q03135); assay: peptide or protein array; PepSPOTs membrane with 13-mer peptides of caveolin-1 (1–85) overlapping by 5 residues, Tyr 6, 14, 25 and 42 phosphorylated; incubated overnight with 1 µg rGST-SHP-2 or rGST-CSK, detected by immunoblotting; both purified

binding [1]	binding [2]	binding [3]	Substance
no binding	–	–	c-Src tyrosine kinase (CSK) (from UniProt P41240 1-450) (enzyme)
–	binds	binds	recombinant glutathione S-transferase (GST)-CSK (from UniProt P41240 1-450) (enzyme)
